# Test results: patent publication US20190337880
# For at least one entry, the source does not settle the construct or the ends of the probe. Where cells or extracts were used, other partners may take part. Protein sequences can lack the tags named with them.
# Molecular target: T1, SOX18 cMyc-tagged (Mus musculus) (UniProt P43680)
# T1 sequence (looked up, limits assumed): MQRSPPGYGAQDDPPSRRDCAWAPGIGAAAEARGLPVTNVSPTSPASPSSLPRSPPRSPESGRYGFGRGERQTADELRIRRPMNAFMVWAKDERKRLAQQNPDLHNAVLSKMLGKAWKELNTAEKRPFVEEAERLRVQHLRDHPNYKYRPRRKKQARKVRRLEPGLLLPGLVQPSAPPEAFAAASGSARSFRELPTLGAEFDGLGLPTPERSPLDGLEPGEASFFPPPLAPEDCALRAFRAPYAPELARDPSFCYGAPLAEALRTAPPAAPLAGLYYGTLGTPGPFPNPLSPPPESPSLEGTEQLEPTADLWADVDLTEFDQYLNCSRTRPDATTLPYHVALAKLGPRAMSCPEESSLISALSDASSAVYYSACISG
# Test: binding assay
# Conditions: ChIP-seq motif enrichment in HUVEC; protein in cells; protein details: cMyc (pSG5 cMyc-Sox18), expressed in HUVEC
sequence,measurement,value
AACAAT (double strand) [SOX18 ChIP-seq top motif],binding result,binds
